Measurements from US20060057569.

Test system: AciI restriction endonuclease
Experiment: enzyme reaction in vitro
Settings: 3'-C22 spacer-NH2, immobilised on well, NEB buffer 3, 37 C, 1 h, 2 units, purified recombinant protein, protein details: New England Biolabs, label: 5'-FITC, folded or branched DNA

GCCCGCGCAATAGGGATGGCTCAACAGCGCGGGC [hairpin probe A]
activity on this sequence (fluorescence x1000 falls from about 350 to about 2.1 without target or with non-matching RNA B'): active

GCCCGCGCTTAGAGTGCAAAATGAAAGCGCCGCGCGGGC [hairpin probe B]
activity on this sequence (fluorescence x1000 falls from about 352 to about 2.1 without target or with non-matching RNA A'): active

For at least one entry, the source does not settle the construct or the ends of the probe.
